Data set [1] deals with Ku70 (XRCC6), Ku heterodimer subunit (Homo sapiens) (UniProt P12956). Put plainly: pull-down. The following applies: protein in an extract, label: Cy3 or biotin.
The test system of data set [2] is Ku70/Ku80 heterodimer (Homo sapiens). Put plainly: pull-down. The following applies: aptamer precipitation and mass spectrometry, U87MG and 1321N1 lysates; protein in an extract; label: Cy3 or biotin.

Chains of the proteins cited; added tags and fusions are not shown. Chains listed by the source or under a name are the forms on record and can include a tag or linker. Residues count along the entry.
UniProt P12956, 2-609: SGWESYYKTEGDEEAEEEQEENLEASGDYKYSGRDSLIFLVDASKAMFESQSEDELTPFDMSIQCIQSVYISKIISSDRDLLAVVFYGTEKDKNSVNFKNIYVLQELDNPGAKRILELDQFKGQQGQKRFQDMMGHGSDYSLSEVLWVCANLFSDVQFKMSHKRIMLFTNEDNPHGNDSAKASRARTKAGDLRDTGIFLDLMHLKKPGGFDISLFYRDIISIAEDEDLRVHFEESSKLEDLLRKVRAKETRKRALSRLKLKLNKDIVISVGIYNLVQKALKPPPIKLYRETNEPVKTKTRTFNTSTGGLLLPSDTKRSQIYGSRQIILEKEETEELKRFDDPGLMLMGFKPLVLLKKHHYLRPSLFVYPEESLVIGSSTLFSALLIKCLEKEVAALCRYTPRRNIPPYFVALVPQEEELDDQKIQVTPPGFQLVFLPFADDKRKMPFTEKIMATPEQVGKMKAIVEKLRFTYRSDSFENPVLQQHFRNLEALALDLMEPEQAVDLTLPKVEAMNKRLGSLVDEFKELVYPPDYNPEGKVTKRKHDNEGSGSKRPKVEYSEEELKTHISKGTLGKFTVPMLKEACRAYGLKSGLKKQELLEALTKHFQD
Ku70/Ku80 heterodimer (Homo sapiens), one chain, as listed by the source, chain 1 of 2: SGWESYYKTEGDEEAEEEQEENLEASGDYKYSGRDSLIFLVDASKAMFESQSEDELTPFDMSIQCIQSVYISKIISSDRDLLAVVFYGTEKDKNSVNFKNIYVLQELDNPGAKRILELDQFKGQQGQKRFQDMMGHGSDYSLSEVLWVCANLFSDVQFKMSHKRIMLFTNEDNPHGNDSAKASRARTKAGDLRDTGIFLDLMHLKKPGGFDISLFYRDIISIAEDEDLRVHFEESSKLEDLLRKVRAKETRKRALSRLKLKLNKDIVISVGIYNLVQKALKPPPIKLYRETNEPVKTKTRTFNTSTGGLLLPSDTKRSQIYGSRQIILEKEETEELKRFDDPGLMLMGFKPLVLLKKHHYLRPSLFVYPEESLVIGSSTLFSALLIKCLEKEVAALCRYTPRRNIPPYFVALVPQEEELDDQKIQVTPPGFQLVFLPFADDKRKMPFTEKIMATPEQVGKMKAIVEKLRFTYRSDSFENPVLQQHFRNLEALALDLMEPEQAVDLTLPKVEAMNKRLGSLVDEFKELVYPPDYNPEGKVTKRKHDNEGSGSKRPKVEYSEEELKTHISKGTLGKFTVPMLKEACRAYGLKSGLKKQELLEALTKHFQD
Ku70/Ku80 heterodimer (Homo sapiens), one chain, as listed by the source, chain 2 of 2: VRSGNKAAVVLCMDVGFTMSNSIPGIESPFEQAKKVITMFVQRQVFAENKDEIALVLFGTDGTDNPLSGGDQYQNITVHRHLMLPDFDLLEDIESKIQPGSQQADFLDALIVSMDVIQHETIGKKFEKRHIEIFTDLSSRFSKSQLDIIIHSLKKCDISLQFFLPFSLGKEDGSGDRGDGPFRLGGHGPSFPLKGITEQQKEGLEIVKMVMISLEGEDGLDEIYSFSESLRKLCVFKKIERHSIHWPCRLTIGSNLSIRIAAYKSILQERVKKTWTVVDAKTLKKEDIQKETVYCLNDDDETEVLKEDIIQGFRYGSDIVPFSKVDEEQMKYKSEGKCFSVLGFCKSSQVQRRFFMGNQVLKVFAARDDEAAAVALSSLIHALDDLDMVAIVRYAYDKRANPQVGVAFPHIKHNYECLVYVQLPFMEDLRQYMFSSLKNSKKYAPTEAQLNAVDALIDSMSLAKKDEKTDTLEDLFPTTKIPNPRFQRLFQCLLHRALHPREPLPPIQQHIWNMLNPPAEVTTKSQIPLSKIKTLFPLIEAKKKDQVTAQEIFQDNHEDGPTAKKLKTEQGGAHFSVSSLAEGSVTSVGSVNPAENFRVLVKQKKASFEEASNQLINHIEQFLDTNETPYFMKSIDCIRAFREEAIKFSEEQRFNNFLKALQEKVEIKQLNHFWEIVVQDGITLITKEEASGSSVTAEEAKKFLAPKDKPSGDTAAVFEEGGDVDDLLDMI

For at least one entry, the source does not settle the construct or the ends of the probe. At least one result comes from cells or an extract, where the contact may be indirect. For part of these data: No signal at the amounts used counts as a negative.

Turning to “ACGUUACUCUUGCAACACAAACUUUAAUAGCCUCUUAUAGUUC [SA43 (GL43)]”, the binding result in data set [1] (aptamer precipitation from U87 lysate, Western blot for Ku70) is recorded as “binds”; in data set [2], “binds”.
In the case of “ACGUUACUCUUGCAACACCCAAACUUUAAUAGCCUCUUAUAGUUC [SA44 (GL44)]”, the binding result in data set [1] (SA44 used as control, no Ku70 detected) is “no binding”.

The record behind these values is patent US9834771.
